Experimental data taken from PMC9250505.
No constants are given. Whether binding was seen depends on the method and setting. Binding seen in cells or lysates may run through a third protein. Some results given as binding are weak or reduced against the parent protein; the word gives no strength.

Target: T1, BCL2-associated death promoter (BAD) protein (human) (UniProt Q92934)
T1 sequence: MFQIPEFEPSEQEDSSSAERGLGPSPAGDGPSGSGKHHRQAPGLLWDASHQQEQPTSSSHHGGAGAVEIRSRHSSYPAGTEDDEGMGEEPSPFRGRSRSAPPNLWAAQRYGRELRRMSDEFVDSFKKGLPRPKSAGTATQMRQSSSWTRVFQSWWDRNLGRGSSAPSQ
Experiment: co-IP; CAOV-2 cells treated with NPB; which protein was precipitated is not stated in the main text

B1: BCL-W (protein, UniProt Q92843 1-193)
chain: MATPASAPDTRALVADFVGYKLRQKGYVCGAGPGEGPAADPLHQAMRAAGDEFETRFRRTFSDLAAQLHVTPGSAQQRFTQVSDELFQGGPNWGRLVAFFVFGAALCAESVNKEMEPLVGQVQEWMVAYLETQLADWIHSSGGWAEFTALYGDGALEEARRLREGNWASVRTVLTGAVALGALVTVGAFFASK
binding: binds
